In PMC3012696, “Crystal Structure of UBA2^ufd-Ubc9: Insights into E1-E2 Interactions in Sumo Pathways” (PLoS ONE, 2010):
No constants are given. Whether binding was seen depends on the method and setting. Some results given as binding are weak or reduced against the parent protein; the word gives no strength. Tags and fused reporters may be left off the sequences shown.

Molecular target: T1, Aos1 (subunit of the yeast Sumo E1), as GST fusion (yeast) (UniProt Q06624)
T1 sequence: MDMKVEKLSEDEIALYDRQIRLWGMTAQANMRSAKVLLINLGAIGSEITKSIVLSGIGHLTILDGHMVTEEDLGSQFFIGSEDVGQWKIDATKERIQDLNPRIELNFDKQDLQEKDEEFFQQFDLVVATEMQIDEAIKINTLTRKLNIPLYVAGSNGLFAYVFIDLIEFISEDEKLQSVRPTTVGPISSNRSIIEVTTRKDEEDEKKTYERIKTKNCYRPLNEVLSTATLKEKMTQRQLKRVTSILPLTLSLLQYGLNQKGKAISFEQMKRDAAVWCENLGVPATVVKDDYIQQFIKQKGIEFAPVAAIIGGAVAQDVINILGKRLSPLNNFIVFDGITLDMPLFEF
Test: co-purification (glutathione affinity, anion exchange); Aos1 and Uba2 expressed in E. coli from the Sumo E1 construct; GST-Aos1-Uba2 on glutathione affinity, cleaved with thrombin at 4°C, Aos1-Uba2 further purified by anion exchange

binding: binds
B1: Uba2 (subunit of the yeast Sumo E1) (enzyme, UniProt P52488 1-636)
chain: MPRETSLVTIIGEDSYKKLRSSRCLLVGAGGIGSELLKDIILMEFGEIHIVDLDTIDLSNLNRQFLFRQKDIKQPKSTTAVKAVQHFNNSKLVPYQGNVMDISTFPLHWFEQFDIIFNALDNLAARRYVNKISQFLSLPLIESGTAGFDGYMQPIIPGKTECFECTKKETPKTFPVCTIRSTPSQPIHCIVWAKNFLFNQLFASETSGNEDDNNQDWGTDDAEEIKRIKQETNELYELQKIIISRDASRIPEILNKLFIQDINKLLAIENLWKTRTKPVPLSDSQINTPTKTAQSASNSVGTIQEQISNFINITQKLMDRYPKEQNHIEFDKDDADTLEFVATAANIRSHIFNIPMKSVFDIKQIAGNIIPAIATTNAIVAGASSLISLRVLNLLKYAPTTKYTDLNMAFTAKASNLSQNRYLSNPKLAPPNKNCPVCSKVCRGVIKLSSDCLNKMKLSDFVVLIREKYSYPQDISLLDASNQRLLFDYDFEDLNDRTLSEINLGNGSIILFSDEEGDTMIRKAIELFLDVDDELPCNTCSLPDVEVPLIKANNSPSKNEEEEKNEKGADVVATTNSHGKDGIVILDDDEGEITIDAEPINGSKKRPVDTEISEAPSNKRTKLVNEPTNSDIVELD
